Here are results for two sequences from patent US8420777B2, “Compounds that inhibit Hsp90 protein-protein interactions with IAP proteins” (University of Massachusetts, priority 2004, dated 2013).

For this data set, the system named is HeLa cells. The data set can be described thus: Internalization of cell permeable peptides, streptavidin-PE fluorescence microscopy. The format is cell-based, Human. The note with it: 150 μM, 6 hours; for internalization into cells: 37° C.

For the sequence “RQIKIWFQNRRMKWKKKHSSGCAFL (Synthetically generated peptide) [P31]”, the “intracellular penetration efficiency (fluorescence of 25 individual cells)” value is recorded as “indistinguishable penetration efficiency” and the internalization into cells result is “efficient internalization”.

Regarding “RQIKIWFQNRRMKWKKSKLACFSHG (Synthetically generated peptide) [P33, reference compound]”, the “intracellular penetration efficiency (fluorescence of 25 individual cells)” value is “indistinguishable penetration efficiency” and the internalization into cells result is “efficient internalization”.
